These are yes or no findings as the source states them, for the method shown. Binding seen in cells or lysates may run through a third protein. Some results given as binding are weak or reduced against the parent protein; the word gives no strength. For part of these data: Tags and fused reporters may be left off the sequences shown.
Experiments:
[1] = target: T1, plakophilin 3 (PKP3), endogenous (human (endogenous in A549)) (UniProt Q9Y446); test: co-IP; A549 cell extracts (RIPA lysis buffer) precleared with protein A-agarose; IP with anti-PKP3 antibody 1 h at 4 °C, protein A/G overnight; western blot for FXR1; rabbit IgG isotype as negative control
T1 sequence: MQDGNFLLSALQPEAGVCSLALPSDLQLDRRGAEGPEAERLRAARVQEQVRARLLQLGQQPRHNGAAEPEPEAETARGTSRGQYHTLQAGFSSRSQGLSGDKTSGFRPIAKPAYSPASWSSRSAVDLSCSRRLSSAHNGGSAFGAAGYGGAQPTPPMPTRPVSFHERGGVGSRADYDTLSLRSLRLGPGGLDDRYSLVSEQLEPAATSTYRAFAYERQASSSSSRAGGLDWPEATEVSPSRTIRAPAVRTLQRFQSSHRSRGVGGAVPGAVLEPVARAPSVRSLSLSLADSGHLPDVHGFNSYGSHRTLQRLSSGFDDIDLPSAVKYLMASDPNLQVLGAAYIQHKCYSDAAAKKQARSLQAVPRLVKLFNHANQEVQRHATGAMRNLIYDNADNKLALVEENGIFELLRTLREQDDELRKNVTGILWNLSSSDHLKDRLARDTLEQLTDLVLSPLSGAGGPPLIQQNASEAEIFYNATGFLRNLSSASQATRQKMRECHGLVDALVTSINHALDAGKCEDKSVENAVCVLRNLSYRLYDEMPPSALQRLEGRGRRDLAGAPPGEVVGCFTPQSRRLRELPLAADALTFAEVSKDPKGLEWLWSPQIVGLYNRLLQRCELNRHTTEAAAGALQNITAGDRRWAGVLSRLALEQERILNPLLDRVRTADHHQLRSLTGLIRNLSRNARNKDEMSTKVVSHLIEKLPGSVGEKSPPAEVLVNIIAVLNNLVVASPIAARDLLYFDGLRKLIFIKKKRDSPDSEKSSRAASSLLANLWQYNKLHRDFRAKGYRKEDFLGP

By UniProt entry, the sequences of proteins in these tests, tags left out.
UniProt P51114: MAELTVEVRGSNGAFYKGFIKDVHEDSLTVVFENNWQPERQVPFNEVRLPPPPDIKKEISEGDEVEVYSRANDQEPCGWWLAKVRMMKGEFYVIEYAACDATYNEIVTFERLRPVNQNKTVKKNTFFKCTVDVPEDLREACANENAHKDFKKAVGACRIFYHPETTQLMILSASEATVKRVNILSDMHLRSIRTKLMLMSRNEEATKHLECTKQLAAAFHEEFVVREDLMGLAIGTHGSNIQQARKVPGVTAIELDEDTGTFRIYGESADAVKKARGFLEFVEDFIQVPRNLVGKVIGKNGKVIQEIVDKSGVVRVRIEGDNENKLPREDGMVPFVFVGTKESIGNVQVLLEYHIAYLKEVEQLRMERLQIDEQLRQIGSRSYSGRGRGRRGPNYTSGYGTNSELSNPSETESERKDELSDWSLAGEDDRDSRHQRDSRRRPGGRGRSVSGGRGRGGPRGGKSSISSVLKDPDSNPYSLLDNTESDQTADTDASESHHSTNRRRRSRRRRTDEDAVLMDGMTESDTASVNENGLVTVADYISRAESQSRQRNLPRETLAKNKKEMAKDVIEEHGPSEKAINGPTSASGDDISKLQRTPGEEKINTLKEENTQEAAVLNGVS

[2] = target: T2, myc-tagged full-length PKP3 (human) (UniProt Q9Y446); test: co-IP; extracts of cells transfected with myc-tagged full-length PKP3 or PKP3ΔC; IP with anti-myc antibody; western blot for coprecipitated endogenous FXR1
T2 sequence: T1 sequence

[3] = target: T3, myc-tagged PKP3ΔC (aa 1–515), lacking repeat domains at its C-terminus (human) (UniProt Q9Y446); test: as above
T3 sequence: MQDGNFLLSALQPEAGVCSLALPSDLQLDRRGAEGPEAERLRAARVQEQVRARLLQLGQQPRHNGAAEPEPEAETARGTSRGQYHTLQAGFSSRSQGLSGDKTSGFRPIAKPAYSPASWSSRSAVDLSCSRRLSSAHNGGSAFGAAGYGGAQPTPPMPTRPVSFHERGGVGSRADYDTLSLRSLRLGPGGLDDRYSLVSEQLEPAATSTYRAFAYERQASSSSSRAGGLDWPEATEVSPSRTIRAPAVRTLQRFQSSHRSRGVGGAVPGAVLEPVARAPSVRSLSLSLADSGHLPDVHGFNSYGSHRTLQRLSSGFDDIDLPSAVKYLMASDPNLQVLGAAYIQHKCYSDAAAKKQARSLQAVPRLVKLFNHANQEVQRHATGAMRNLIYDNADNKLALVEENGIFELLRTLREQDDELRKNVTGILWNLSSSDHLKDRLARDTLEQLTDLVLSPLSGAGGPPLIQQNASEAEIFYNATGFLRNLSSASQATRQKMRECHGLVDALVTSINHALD

Measured: binding

fragile X mental retardation syndrome-related protein 1 (FXR1), endogenous (from UniProt P51114 1-621)
binds: all assays above
